In the supplement of paper PMC10849652:
This is one part of the list.

The chains behind the UniProt entries cited, without tags or fusion partners. Where a name states a change or a piece, a line headed by the entry shows the natural chain unless it says otherwise.
UniProt P03891, whole entry, looked up: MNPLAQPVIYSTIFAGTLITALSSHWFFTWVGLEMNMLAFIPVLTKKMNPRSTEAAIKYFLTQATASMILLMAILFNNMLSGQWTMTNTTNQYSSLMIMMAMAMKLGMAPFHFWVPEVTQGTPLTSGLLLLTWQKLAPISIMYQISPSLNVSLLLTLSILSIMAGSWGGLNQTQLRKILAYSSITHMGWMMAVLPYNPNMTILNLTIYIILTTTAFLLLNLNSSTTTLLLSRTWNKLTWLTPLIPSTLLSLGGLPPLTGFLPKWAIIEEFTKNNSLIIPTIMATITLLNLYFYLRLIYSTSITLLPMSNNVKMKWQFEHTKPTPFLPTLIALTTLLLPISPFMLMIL
UniProt Q9NYA4: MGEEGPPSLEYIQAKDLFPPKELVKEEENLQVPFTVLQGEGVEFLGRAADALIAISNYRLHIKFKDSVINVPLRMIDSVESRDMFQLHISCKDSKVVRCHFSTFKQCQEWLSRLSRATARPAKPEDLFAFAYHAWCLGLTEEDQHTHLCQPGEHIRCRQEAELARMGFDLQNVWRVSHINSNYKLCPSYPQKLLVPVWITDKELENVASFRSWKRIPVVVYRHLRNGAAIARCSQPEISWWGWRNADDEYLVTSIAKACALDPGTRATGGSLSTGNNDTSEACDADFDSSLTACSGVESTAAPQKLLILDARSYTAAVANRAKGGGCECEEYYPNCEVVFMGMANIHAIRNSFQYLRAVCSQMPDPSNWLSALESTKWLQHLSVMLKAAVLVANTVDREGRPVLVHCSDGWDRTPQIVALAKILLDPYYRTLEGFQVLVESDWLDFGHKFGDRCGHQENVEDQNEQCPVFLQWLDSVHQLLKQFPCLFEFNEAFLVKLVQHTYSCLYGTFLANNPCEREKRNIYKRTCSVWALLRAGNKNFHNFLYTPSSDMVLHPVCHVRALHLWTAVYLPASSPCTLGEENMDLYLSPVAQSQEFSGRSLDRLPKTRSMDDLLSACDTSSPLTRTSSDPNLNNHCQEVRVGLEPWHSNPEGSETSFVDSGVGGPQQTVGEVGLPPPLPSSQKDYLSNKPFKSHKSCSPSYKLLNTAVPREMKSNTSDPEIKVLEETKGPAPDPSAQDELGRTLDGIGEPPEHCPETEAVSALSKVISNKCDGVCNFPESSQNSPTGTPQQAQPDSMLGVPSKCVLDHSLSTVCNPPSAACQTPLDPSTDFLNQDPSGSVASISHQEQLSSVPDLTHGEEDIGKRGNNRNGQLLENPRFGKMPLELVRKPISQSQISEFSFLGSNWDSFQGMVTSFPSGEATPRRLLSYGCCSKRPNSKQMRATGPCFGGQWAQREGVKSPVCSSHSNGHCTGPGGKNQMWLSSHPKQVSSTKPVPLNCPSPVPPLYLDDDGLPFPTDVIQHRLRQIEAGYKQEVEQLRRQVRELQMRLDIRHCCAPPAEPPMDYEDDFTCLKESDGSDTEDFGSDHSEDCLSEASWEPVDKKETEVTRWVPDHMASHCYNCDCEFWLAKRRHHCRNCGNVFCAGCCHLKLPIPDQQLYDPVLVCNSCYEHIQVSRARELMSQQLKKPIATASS
UniProt Q96DP5: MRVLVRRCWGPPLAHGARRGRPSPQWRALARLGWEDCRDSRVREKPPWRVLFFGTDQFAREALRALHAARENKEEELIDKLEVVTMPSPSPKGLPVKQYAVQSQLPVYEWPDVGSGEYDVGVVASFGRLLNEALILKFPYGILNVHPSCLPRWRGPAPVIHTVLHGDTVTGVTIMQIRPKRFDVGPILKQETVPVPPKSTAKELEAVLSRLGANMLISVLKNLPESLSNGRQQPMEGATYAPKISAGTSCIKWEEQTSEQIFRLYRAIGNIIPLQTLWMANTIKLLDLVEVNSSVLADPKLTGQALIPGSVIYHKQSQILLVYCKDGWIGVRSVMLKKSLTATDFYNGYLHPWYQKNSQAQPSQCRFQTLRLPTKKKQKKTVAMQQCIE
UniProt G3V1V0: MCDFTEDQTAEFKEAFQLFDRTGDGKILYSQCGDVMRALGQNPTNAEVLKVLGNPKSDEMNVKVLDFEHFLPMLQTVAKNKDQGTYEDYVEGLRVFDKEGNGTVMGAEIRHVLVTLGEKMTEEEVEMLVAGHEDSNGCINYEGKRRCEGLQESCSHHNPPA
UniProt Q9H903: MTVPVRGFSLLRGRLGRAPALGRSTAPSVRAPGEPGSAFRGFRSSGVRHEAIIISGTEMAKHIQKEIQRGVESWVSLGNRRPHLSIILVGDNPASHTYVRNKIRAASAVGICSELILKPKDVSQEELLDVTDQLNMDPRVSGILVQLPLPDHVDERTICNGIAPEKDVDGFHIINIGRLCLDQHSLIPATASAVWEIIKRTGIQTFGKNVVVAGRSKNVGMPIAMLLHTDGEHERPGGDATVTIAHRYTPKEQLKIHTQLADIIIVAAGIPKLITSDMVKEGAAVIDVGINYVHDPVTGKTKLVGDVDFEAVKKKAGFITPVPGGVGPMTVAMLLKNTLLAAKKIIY
UniProt Q9BQG0: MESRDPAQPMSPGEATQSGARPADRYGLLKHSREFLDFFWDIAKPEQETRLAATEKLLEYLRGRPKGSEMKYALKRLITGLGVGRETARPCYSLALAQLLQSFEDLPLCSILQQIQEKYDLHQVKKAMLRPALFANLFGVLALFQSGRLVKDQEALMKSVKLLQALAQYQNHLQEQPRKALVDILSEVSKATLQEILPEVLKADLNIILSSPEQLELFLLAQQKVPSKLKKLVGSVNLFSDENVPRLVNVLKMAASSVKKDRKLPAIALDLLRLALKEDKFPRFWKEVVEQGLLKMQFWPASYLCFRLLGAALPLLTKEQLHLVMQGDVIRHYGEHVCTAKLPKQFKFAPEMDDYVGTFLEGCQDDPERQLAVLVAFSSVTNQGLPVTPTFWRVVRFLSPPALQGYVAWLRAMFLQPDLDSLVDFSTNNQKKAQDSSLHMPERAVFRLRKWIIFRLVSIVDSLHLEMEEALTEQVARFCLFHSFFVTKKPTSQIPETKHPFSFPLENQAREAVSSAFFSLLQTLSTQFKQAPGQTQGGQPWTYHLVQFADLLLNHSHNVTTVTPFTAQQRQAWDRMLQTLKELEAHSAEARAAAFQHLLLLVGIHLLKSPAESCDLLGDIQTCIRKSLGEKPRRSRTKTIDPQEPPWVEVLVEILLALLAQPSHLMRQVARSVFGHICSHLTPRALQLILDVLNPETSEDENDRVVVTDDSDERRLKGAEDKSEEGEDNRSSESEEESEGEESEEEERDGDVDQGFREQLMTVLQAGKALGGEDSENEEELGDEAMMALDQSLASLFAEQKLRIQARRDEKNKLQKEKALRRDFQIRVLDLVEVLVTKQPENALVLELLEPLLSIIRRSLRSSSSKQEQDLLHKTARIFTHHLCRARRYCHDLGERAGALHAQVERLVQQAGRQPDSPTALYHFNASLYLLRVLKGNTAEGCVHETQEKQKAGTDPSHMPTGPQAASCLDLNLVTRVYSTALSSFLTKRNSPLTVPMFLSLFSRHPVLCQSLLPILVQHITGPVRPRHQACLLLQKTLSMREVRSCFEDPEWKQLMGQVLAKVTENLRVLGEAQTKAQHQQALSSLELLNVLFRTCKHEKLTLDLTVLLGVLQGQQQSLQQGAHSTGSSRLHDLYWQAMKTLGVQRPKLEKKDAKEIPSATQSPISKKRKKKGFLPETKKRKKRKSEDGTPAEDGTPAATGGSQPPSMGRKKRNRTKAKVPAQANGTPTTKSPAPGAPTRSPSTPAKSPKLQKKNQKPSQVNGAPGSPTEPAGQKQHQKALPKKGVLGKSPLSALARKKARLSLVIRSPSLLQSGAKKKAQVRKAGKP
UniProt Q96E29: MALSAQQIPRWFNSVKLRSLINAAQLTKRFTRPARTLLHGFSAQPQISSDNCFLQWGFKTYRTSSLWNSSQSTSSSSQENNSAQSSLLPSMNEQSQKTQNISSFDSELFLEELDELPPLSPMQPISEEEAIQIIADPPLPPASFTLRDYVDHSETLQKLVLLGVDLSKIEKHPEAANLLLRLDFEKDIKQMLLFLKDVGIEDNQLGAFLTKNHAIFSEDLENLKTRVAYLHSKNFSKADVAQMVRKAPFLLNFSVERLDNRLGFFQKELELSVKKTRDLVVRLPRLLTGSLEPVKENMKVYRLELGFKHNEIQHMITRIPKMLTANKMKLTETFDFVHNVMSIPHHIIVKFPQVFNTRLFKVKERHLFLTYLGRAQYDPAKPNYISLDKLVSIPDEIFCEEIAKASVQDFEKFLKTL
UniProt Q9P0P8: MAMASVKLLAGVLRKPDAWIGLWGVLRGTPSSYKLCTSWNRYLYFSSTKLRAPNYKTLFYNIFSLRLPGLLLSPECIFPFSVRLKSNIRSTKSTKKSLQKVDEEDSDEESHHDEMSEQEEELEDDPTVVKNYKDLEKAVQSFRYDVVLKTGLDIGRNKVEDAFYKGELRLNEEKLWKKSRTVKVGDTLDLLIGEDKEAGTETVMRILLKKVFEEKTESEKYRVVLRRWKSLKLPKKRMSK
UniProt Q13126: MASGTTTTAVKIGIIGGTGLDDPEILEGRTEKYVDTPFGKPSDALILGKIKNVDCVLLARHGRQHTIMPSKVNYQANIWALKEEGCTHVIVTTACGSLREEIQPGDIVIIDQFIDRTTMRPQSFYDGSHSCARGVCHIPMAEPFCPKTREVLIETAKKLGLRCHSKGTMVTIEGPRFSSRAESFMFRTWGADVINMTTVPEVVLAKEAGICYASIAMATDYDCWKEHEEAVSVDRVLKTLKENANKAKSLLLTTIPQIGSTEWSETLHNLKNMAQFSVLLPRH

Legend:
Test in all cases: log2 fold change, soluble protein after heating vs DMSO (PISA); higher = thermal stabilisation; K562 cells, 10 uM, 30 min; active = over 0.2 and 3.5 SD of the protein, either way, in both replicates (recomputed)
[1] = compound: COC1=CC=C(C=C1)CN2C=CC3=C2C=C(C=C3)C(=O)NO
Method in brief: (§1)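 Thermal stability values are relative to control samples and come from duplicates. They are expressed as log2 fold changes. For measurement, K562 cells (2×10^6 cells/mL) received 10 μM compound for 30 min, and aliquots were heated for 3 min over 48°C-58°C, pooled, and extracted at 4°C in PBS with 0.5% NP-40. Soluble protein, the supernatant after 21,000xg for 90 min, was quantified by TMTpro 16plex LC-MS/MS with equalised channel sums.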

zotarolimus = compound: CO[C@H]1C[C@@H]2CC[C@@H](C)[C@@](O)(O2)C(=O)C(=O)N2CCCC[C@H]2C(=O)O[C@H]([C@H](C)C[C@@H]2CC[C@H](n3cnnn3)[C@H](OC)C2)CC(=O)[C@H](C)/C=C(\C)[C@@H](O)[C@@H](OC)C(=O)[C@H](C)C[C@H](C)/C=C/C=C/C=C/1C [zotarolimus]
Method in brief: as §1

idasanutlin = compound: COc1cc(C(=O)O)ccc1NC(=O)[C@@H]1N[C@@H](CC(C)(C)C)[C@](C#N)(c2ccc(Cl)cc2F)[C@H]1c1cccc(Cl)c1F [idasanutlin]
Method in brief: as §1

alisertib = compound: COc1cc(Nc2ncc3c(n2)-c2ccc(Cl)cc2C(c2c(F)cccc2OC)=NC3)ccc1C(=O)O [alisertib]
Method in brief: as §1

[2] = compound: COc1cc2nc(-c3cc(F)ccc3O)nc(N[C@@H]3CNC[C@H]3C(C)(C)O)c2cc1OC
Method in brief: as §1

gefitinib = compound: COc1cc2ncnc(Nc3ccc(F)c(Cl)c3)c2cc1OCCCN1CCOCC1 [gefitinib]
Method in brief: as §1

[3] = compound: COc1cccc2cc(-c3nc([C@H]4CC[C@H](C(=O)O)CC4)n4ncnc(N)c34)[nH]c12
Method in brief: as §1

lapatinib = compound: CS(=O)(=O)CCNCc1ccc(-c2ccc3ncnc(Nc4ccc(OCc5cccc(F)c5)c(Cl)c4)c3c2)o1 [lapatinib]
Method in brief: as §1

pictilisib = compound: CS(=O)(=O)N1CCN(Cc2cc3nc(-c4cccc5[nH]ncc45)nc(N4CCOCC4)c3s2)CC1 [pictilisib]
Method in brief: as §1

crizotinib = compound: C[C@@H](Oc1cc(-c2cnn(C3CCNCC3)c2)cnc1N)c1c(Cl)ccc(F)c1Cl [crizotinib]
Method in brief: as §1

[4] = compound: C[C@H](C1=CC=C(C=C1)C(=O)NC2=C3C=CNC3=NC=C2)N
Method in brief: as §1

gandotinib = compound: Cc1cc(Nc2cc(CN3CCOCC3)c3nc(C)c(Cc4ccc(Cl)cc4F)n3n2)n[nH]1 [gandotinib]
Method in brief: as §1

[5] = compound: Cc1cc(SCc2sc(-c3ccc(C(F)(F)F)cc3)nc2C)ccc1OCC(=O)O
Method in brief: as §1

doramapimod = compound: Cc1ccc(-n2nc(C(C)(C)C)cc2NC(=O)Nc2ccc(OCCN3CCOCC3)c3ccccc23)cc1 [doramapimod]
Method in brief: as §1

ispinesib = compound: Cc1ccc(C(=O)N(CCCN)[C@@H](c2nc3cc(Cl)ccc3c(=O)n2Cc2ccccc2)C(C)C)cc1 [ispinesib]
Method in brief: as §1

filanesib = compound: CON(C)C(=O)N1N=C(c2cc(F)ccc2F)S[C@@]1(CCCN)c1ccccc1 [filanesib]
Method in brief: as §1

[6] = compound: CS(=O)(=O)c1ccc(-c2cnc(N)c(C(=O)Nc3ccccc3)n2)cc1
Method in brief: as §1

[7] = compound: C[C@@H]1COCCN1C2=NC(=NC(=C2)C3(CC3)S(=O)(=O)C)C4=C5C=CNC5=CC=C4
Method in brief: as §1

tozasertib = compound: Cc1cc(Nc2cc(N3CCN(C)CC3)nc(Sc3ccc(NC(=O)C4CC4)cc3)n2)n[nH]1 [tozasertib]
Method in brief: as §1

duvelisib = compound: C[C@H](Nc1ncnc2nc[nH]c12)c1cc2cccc(Cl)c2c(=O)n1-c1ccccc1 [duvelisib]
Method in brief: as §1

Measured: log2 fold change

MT-ND2 (UniProt P03891)
inactive: [1] -0.029 | zotarolimus 0.065 | idasanutlin -0.143 | alisertib 0.04 | [2] -0.131 | gefitinib 0.106 | [3] 0.074 | lapatinib -0.008 | pictilisib 0.139 | crizotinib 0.096 | [4] -0.028 | gandotinib -0.064 | [5] 0.101 | doramapimod -0.141 | ispinesib 0.336

MRPS36 (UniProt D6R941)
inactive: filanesib 0.304 | gefitinib 0.062 | [6] 0.253 | [7] -0.012

MTMR4 (UniProt Q9NYA4)
inactive: [1] -0.015 | filanesib 0.02 | [6] 0.001 | crizotinib -0.266 | doramapimod -0.059 | ispinesib -0.234

Quoted from above (2 entries):
MRPS36 (UniProt D6R941)
inactive: filanesib 0.304 | gefitinib 0.062 | [6] 0.253 | [7] -0.012

MTMR4 (UniProt Q9NYA4)
inactive: [1] -0.015 | filanesib 0.02 | [6] 0.001 | crizotinib -0.266 | doramapimod -0.059 | ispinesib -0.234

Further records follow.

MTFMT (UniProt Q96DP5)
inactive: filanesib -0.264 | [2] -0.128 | lapatinib 0.057 | [6] 0.299 | [7] 0.272 | tozasertib -0.053

MYL6 (UniProt G3V1V0)
inactive: filanesib -0.184 | zotarolimus -0.133 | idasanutlin 0.044 | alisertib -0.325 | [3] 0.131 | [6] -0.21 | [4] -0.018 | duvelisib -0.025 | tozasertib 0.131 | [5] -0.119 | ispinesib 0.019

MTHFD2L (UniProt Q9H903)
inactive: filanesib -0.004 | zotarolimus 0.12 | alisertib 0.051 | [3] -0.394 | [6] 0.069 | [7] -0.061 | [4] -0.081 | duvelisib 0.241 | [5] -0.033

MYBBP1A isoform 2 (UniProt Q9BQG0)
inactive: [1] 0 | zotarolimus 0.003 | idasanutlin 0.459 | gefitinib -0.072 | pictilisib -0.083 | crizotinib -0.346 | [7] -0.177 | [4] 0.489 | duvelisib -0.06 | gandotinib 0.003 | tozasertib 0.372 | [5] 0.048 | doramapimod 0.165 | ispinesib 0.021

MTERF3 (UniProt Q96E29)
inactive: filanesib -0.241 | alisertib 0.072 | [3] 0.424 | pictilisib 0.032 | [6] -0.339 | duvelisib 0.091 | gandotinib 0.076 | tozasertib 0.026 | [5] -0.089 | ispinesib -0.067

MTRES1 (UniProt Q9P0P8)
inactive: idasanutlin 0.117 | alisertib 0.081 | [2] 0.066 | [3] 0.149 | lapatinib -0.041 | [7] 0.124 | tozasertib -0.114

MTAP isoform 2 (UniProt Q13126)
inactive: [1] 0.067 | filanesib -0.1 | pictilisib 0.015 | [6] 0.059 | crizotinib 0.003 | duvelisib 0.108 | gandotinib 0.065 | [5] 0.008 | doramapimod 0.119
